Measurements reported in PubChem BioAssay AID652272 (Drosophila RNAi Screening Center, 2013).

Aim: 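Genes whose knock-down decreases or increases Hedgehog reporter output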 (primary screen)
Cells: Drosophila clone 8 (Cl8) cells
Reagent: long dsRNA against Drosophila genes
Detection: 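Plate reader light from a firefly reporter under a ptc promoter fragment that responds to Hedgehog, with Renilla light as transfection reference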
Reading the numbers: firefly Hh reporter signal: higher = more ptc reporter light; Renilla reference signal: higher = more Renilla control light
Hit rule: 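Called a hit if the two-replicate mean z-score lies below -2 or above +3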
Meaning of the calls: active = hit: reporter lowered or raised; inactive = not a hit
The deposit covers about 21,000 reagents; shown is a random part of those with a known target gene and a result. In the full data, 503 (2.4%) are marked active. 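Raw plate light values, not normalised; calls rest on replicate z-scores that were not deposited; hits include reporter decreases as well as increases.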 Reagents against one gene are numbered here. Names joined by + are all predicted targets of the reagent. Not given: the amount of reagent, the time to read-out.

The opening 7 records, ahead of the listing:
| target gene | reagent no. | firefly Hh reporter signal, replicate 1 | firefly Hh reporter signal, replicate 2 | firefly Hh reporter signal, replicate 3 | Renilla reference signal, replicate 1 | Renilla reference signal, replicate 2 | Call |
| --- | --- | --- | --- | --- | --- | --- | --- |
| ACOX1 | 1 | 1.11e5 | 82696 | – | 4925 | 3590 | inactive |
| CG31206 | 1 | 57545 | 2.31e5 | – | 13504 | 5435 | inactive |
| l(3)87Df | 1 | 1.27e5 | 1.29e5 | – | 4216 | 3329 | inactive |
| CR43670 + CR43671 + CR43669 | 1 | 1.25e5 | 3.48e5 | – | 3568 | 15680 | inactive |
| CR43670 + CR43671 + CR43669 | 2 | 1.31e5 | 2.65e5 | – | 3634 | 11798 | inactive |
| CG9624 | 1 | 76277 | 1.06e5 | – | 1880 | 1794 | inactive |
| CG34286 | 1 | 53331 | 3.31e5 | – | 11492 | 5257 | inactive |

Results, repeating the preview:
| target gene | reagent no. | firefly Hh reporter signal, replicate 1 | firefly Hh reporter signal, replicate 2 | firefly Hh reporter signal, replicate 3 | Renilla reference signal, replicate 1 | Renilla reference signal, replicate 2 | Call |
| --- | --- | --- | --- | --- | --- | --- | --- |
| ACOX1 | 1 | 1.11e5 | 82696 | – | 4925 | 3590 | inactive |
| CG31206 | 1 | 57545 | 2.31e5 | – | 13504 | 5435 | inactive |
| l(3)87Df | 1 | 1.27e5 | 1.29e5 | – | 4216 | 3329 | inactive |
| CR43670 + CR43671 + CR43669 | 1 | 1.25e5 | 3.48e5 | – | 3568 | 15680 | inactive |
| CR43670 + CR43671 + CR43669 | 2 | 1.31e5 | 2.65e5 | – | 3634 | 11798 | inactive |
| CG9624 | 1 | 76277 | 1.06e5 | – | 1880 | 1794 | inactive |
| CG34286 | 1 | 53331 | 3.31e5 | – | 11492 | 5257 | inactive |
| CG5645 | 1 | 1.31e5 | 80259 | – | 4978 | 2964 | inactive |
| elfless | 1 | 78423 | 50826 | – | 2262 | 4300 | inactive |
| gus | 1 | 1.54e5 | 1.29e5 | – | 6032 | 5463 | inactive |
| gus | 2 | 66957 | 5.80e5 | 45099 | 1634 | 32469 | inactive |
| CG15536 | 1 | 1.03e5 | 7.80e5 | 1.65e5 | 1560 | 5777 | inactive |
| gl | 1 | 6.71e5 | 1.43e5 | – | 34868 | 3708 | inactive |
| lace | 1 | 1.07e5 | 89191 | – | 4296 | 3523 | inactive |
| alph | 1 | 1.15e5 | 82052 | – | 2593 | 2498 | inactive |
| CG13217 | 1 | 1.27e5 | 63852 | – | 2689 | 4689 | inactive |
| CG3511 | 1 | 74384 | 57312 | – | 4054 | 2917 | inactive |
| CG33784 | 1 | 2.39e5 | – | – | 3859 | – | inactive |
| CG14990 | 1 | 54407 | 32459 | – | 1680 | 2291 | inactive |
| CAH13 | 1 | 87401 | 61320 | – | 2294 | 5221 | inactive |
| CG6749 | 1 | 32019 | 61737 | 59308 | 5266 | 4024 | inactive |
| CG15877 | 1 | 65303 | 50160 | – | 1905 | 3569 | inactive |
| Osi7 | 1 | 74058 | 1.01e5 | – | 3019 | 2807 | inactive |
| CG34433 | 1 | 1.02e5 | 90759 | – | 3756 | 2378 | inactive |
| CG13334 | 1 | 70611 | 37236 | – | 1893 | 3045 | inactive |
| CG7707 | 1 | 1.46e5 | – | – | 2724 | 2637 | inactive |
| eIF3g1 | 1 | 95400 | 36327 | – | 2157 | 1632 | inactive |
| CG34337 | 1 | 1.04e5 | 2.61e5 | – | 3280 | 8770 | inactive |
| CG6244 | 1 | 1.50e5 | – | – | 5127 | 4424 | inactive |
| CG3335 | 1 | 55652 | 48225 | 42061 | 4256 | 3388 | inactive |
| CG12769 | 1 | 1.49e5 | 1.16e5 | – | 5476 | 4539 | inactive |
| CG15025 | 1 | 5.50e5 | 71392 | – | 30426 | 1847 | inactive |
| Sec22 + CG13358 | 1 | 91056 | 91558 | – | 2034 | 3004 | inactive |
| CG13045 | 1 | 88055 | – | – | 4738 | 2586 | inactive |
| Rhp | 1 | 75232 | 1.65e5 | – | 2227 | 6676 | inactive |
| RAF2 | 1 | 1.20e5 | 67995 | – | 4485 | 2329 | inactive |
| RAF2 | 2 | 89457 | – | – | 5333 | 2813 | inactive |
| AlaRS | 1 | 86641 | 66034 | – | 3777 | 1670 | inactive |
| Hmt4-20 | 1 | 1.06e5 | 73428 | – | 1964 | 1755 | inactive |
| CG8851 | 1 | 1.10e5 | 53472 | – | 2921 | 5306 | inactive |
| Art4 | 1 | 72681 | 1.28e5 | – | 2439 | 3180 | inactive |
| CG32762 | 1 | 1.21e5 | 5.92e5 | 2.82e5 | 3427 | 4272 | inactive |
| CG33253 | 1 | 1.02e5 | 3.60e5 | – | 2803 | 14899 | inactive |
| CG33253 | 2 | 1.42e5 | 3.87e5 | – | 5088 | 16332 | inactive |
| CG12075 | 1 | 88565 | 75479 | – | 2051 | 2004 | inactive |
| CG12420 | 1 | 1.36e5 | 6.19e5 | 2.17e5 | 4171 | 4155 | inactive |
| DCTN1-p150 | 1 | 1.22e5 | 83938 | – | 4208 | 2601 | inactive |
| Hex-t1 | 1 | 5.78e5 | 88592 | – | 27927 | 427 | inactive |
| CR31958 | 1 | 1.90e5 | 77079 | – | 4608 | 7530 | inactive |
| Nup44A | 1 | 50365 | 50673 | – | 2048 | 2002 | inactive |
| link | 1 | 46312 | 32001 | – | 1787 | 3233 | active |
| CG8543 | 1 | 83323 | 67644 | – | 10096 | 4370 | inactive |
| dib | 1 | 1.07e5 | 65537 | – | 3916 | 2475 | inactive |
| Or49a | 1 | 70188 | 58683 | – | 1619 | 3865 | inactive |
| CG3246 | 1 | 1.01e5 | 80883 | – | 2758 | 5617 | inactive |
| CG14280 | 1 | 6.09e5 | 68704 | – | 31145 | 2026 | inactive |
| CG11396 | 1 | 89101 | 98790 | – | 3538 | 3400 | inactive |
